Test results: paper PMC10184973
No constants are given. Whether binding was seen depends on the method and setting. Binding seen in cells or lysates may run through a third protein. Some entries that bind do so weakly or less than the wild type.

Sequences of proteins named here, by UniProt entry; tags and fusion partners are left off.
UniProt Q92556: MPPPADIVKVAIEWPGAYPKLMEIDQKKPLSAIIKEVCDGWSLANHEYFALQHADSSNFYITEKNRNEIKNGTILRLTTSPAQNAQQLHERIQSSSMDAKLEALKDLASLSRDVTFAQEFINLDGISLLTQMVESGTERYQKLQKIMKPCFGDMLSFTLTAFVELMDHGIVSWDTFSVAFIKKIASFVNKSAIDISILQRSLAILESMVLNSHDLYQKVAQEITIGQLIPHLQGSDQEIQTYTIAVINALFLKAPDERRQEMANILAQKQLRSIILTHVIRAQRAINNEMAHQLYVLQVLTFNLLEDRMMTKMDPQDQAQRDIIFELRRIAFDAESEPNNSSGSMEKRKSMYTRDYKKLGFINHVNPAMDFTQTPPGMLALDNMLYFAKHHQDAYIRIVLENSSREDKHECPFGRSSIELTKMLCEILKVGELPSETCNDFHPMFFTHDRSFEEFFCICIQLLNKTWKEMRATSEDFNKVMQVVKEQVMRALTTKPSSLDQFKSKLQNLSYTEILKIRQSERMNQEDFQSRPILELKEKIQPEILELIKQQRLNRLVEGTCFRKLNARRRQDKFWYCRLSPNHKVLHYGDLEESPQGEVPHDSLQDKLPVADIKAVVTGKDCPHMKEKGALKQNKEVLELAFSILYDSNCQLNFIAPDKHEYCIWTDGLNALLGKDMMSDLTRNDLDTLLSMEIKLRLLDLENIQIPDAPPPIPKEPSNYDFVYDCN
UniProt Q8IZD9: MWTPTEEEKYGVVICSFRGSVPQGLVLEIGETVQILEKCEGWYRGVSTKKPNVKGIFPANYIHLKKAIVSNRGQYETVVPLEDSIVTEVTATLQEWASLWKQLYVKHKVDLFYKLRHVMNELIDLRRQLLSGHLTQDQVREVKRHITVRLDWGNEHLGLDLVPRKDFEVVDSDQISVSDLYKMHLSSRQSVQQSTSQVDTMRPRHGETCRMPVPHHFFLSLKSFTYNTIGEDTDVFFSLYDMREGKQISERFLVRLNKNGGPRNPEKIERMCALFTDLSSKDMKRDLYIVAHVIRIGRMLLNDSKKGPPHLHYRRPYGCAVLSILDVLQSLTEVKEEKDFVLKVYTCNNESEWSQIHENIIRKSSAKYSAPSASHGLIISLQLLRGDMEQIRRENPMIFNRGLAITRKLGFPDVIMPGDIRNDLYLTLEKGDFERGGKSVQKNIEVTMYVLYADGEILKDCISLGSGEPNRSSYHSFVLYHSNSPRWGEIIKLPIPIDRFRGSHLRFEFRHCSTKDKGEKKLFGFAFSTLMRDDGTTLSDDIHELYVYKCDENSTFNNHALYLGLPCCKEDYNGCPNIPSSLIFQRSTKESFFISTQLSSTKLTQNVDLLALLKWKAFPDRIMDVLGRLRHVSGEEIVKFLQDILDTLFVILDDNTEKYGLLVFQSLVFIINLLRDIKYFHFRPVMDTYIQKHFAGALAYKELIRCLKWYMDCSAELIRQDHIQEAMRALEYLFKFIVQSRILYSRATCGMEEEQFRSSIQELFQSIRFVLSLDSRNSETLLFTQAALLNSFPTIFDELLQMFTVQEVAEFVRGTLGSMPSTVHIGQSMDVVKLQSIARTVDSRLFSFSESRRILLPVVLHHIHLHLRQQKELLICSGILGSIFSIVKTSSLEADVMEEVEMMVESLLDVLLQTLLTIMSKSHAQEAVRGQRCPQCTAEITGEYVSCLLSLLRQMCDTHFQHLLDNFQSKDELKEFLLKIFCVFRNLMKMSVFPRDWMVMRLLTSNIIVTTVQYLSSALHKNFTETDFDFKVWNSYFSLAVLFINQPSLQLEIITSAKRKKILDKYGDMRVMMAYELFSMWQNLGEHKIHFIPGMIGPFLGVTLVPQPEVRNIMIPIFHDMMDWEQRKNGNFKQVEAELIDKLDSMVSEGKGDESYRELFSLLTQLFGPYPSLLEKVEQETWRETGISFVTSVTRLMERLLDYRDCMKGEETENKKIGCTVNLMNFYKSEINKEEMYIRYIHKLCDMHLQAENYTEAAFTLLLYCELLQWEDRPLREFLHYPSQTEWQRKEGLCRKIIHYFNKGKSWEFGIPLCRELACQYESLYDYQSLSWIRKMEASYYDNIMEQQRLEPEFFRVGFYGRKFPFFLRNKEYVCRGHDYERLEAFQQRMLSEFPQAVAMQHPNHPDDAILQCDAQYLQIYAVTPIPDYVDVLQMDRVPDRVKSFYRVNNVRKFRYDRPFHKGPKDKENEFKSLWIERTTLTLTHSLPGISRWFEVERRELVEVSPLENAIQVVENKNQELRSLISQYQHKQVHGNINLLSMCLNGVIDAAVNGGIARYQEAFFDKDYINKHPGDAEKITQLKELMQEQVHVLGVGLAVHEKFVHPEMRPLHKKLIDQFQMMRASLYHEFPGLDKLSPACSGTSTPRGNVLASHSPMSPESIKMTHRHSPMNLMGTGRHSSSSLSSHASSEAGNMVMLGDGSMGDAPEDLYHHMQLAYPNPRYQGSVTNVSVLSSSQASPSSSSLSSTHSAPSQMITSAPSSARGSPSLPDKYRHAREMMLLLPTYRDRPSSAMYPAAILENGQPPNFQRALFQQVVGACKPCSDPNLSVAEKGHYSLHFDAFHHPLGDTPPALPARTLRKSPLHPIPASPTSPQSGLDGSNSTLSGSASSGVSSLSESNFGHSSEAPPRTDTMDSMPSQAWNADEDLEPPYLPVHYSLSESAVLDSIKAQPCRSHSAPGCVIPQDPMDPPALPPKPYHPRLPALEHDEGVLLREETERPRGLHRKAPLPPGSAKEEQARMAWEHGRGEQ

Legend:
[1] = target: Elmo1 Halo Tag (Engulfment and cell motility protein 1 with Halo Tag fused at its C-terminus) (UniProt Q92556); assay: FRET or BRET; intermolecular NanoBRET in 293A cells co-transfected with Nano Luc DOCK3 and Elmo1 Halo Tag plasmids; 100 nM HaloTag NanoBRET 618 Ligand; 4 h with compounds at 37 °C, 5% CO2; donor emission at 460 nm and acceptor emission measured
[2] = target: myc-GST-hElmo (human) (UniProt Q92556); assay: pull-down; myc-GST-Elmo held on Glutathione Sepharose 4B, washed, then incubated with Cos7 lysate expressing myc-hDOCK3 in the presence or absence of DS72062539 (10 µM) for 10 min at 4 °C; immunoblot with anti-myc antibody; only the target purified

Row | binding [1] | binding [2] | Substance
1 | binds |  | Nano Luc DOCK3 (Dedicator of cytokinesis 3 with Nano Luc fused at its N-terminus) (from UniProt Q8IZD9 1-2030)
2 |  | binds | myc-tagged hDOCK3 (from UniProt Q8IZD9 1-2030)
